Assay results from paper PMC4422300.
These are yes or no findings as the source states them, for the method shown. In cells and extracts the contact can be indirect. Some entries that bind do so weakly or less than the wild type. Blank lines part the entries; values can stand above or below the binder they belong to.

Legend:
[1] = molecular target: T1, Checkpoint kinase Chk1 (human (endogenous in HCT116)) (UniProt O14757); experiment: co-IP; mitochondrial extracts (± UV); immunoprecipitation with anti-Chk1 ab, immunoblot for BAK, PUMA, Bcl-xL
T1 sequence: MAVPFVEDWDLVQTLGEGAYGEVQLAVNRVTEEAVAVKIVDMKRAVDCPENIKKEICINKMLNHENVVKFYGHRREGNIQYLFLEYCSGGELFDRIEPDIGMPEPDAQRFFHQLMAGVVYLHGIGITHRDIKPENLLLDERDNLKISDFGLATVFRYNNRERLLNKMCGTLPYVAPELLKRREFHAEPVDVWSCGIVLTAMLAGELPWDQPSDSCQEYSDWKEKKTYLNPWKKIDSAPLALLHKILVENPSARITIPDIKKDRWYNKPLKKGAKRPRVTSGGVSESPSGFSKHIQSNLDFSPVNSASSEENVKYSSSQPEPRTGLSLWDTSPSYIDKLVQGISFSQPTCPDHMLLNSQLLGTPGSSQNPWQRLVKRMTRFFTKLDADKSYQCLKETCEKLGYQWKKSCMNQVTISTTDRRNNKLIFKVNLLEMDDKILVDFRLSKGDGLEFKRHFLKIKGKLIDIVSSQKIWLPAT

[2] = molecular target: T2, BAK (wild type), reconstituted in HCT116 cells lacking both BAK and BAX, Q16611; experiment: co-IP; mitochondria of HCT116-WT BAK cells (with or without Chk1 inhibitor, ± UV) solubilised in 1% CHAPS buffer; immunoprecipitation with anti-BAK ab (Y164), immunoblot for Bcl-xL, PUMA, Bim; conditions: remark: other sources report otherwise
T2 chain: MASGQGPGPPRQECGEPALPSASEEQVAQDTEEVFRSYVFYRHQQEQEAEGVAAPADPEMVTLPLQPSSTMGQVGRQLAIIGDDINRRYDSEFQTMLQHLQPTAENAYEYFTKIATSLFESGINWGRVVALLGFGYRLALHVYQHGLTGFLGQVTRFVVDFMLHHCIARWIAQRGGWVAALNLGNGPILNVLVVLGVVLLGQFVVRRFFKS

[3] = molecular target: T2, BAK (wild type), reconstituted in …; experiment: cross-linking; 70-100 ug of mitochondria isolated from cells (with or without Chk1 inhibitor SB-218078 for 30 min; alone, UV or etoposide for 8 hrs) crosslinked with 10 mM BMH; BAK detected by western blot; conditions: remark: other sources report otherwise
[4] = molecular target: T2, BAK (wild type), reconstituted in …; experiment: cross-linking; same mitochondrial preparations crosslinked with 10 mM BMOE, which detects only monomer and dimer forms of BAK; BAK detected by western blot; conditions: remark: other sources report otherwise
[5] = molecular target: BAK Y108A mutant (UniProt Q16611); experiment: cross-linking; 70-100 ug of mitochondria isolated from cells (with or without Chk1 inhibitor SB-218078 for 30 min; alone, UV or etoposide for 8 hrs) crosslinked with 10 mM BMH; BAK detected by western blot
[6] = molecular target: BAK S117A mutant (UniProt Q16611); experiment: as above

B3: BAK (wild type), reconstituted in HCT116 cells lacking both BAK and BAX, Q16611 1-211 (protein)
chain: MASGQGPGPPRQECGEPALPSASEEQVAQDTEEVFRSYVFYRHQQEQEAEGVAAPADPEMVTLPLQPSSTMGQVGRQLAIIGDDINRRYDSEFQTMLQHLQPTAENAYEYFTKIATSLFESGINWGRVVALLGFGYRLALHVYQHGLTGFLGQVTRFVVDFMLHHCIARWIAQRGGWVAALNLGNGPILNVLVVLGVVLLGQFVVRRFFKS
- binding [3]: binds
- binding [4]: binds

B4: BAK Y108A mutant (protein, UniProt Q16611 1-211)
chain: MASGQGPGPPRQECGEPALPSASEEQVAQDTEEVFRSYVFYRHQQEQEAEGVAAPADPEMVTLPLQPSSTMGQVGRQLAIIGDDINRRYDSEFQTMLQHLQPTAENAAEYFTKIATSLFESGINWGRVVALLGFGYRLALHVYQHGLTGFLGQVTRFVVDFMLHHCIARWIAQRGGWVAALNLGNGPILNVLVVLGVVLLGQFVVRRFFKS
- binding [5]: binds

Further lines, results first:

- binding [1]: binds
B1: PUMA (protein, UniProt Q9BXH1 1-193)
chain: MARARQEGSSPEPVEGLARDGPRPFPLGRLVPSAVSCGLCEPGLAAAPAAPTLLPAAYLCAPTAPPAVTAALGGSRWPGGPRSRPRGPRPDGPQPSLSLAEQHLESPVPSAPGALAGGPTQAAPGVRGEEEQWAREIGAQLRRMADDLNAQYERRRQEEQQRHRPSPWRVLYNLIMGLLPLPRGHRAPEMEPN

- binding [2]: binds
B2: PUMA, Q9BXH1 1-193 (protein)
chain: MARARQEGSSPEPVEGLARDGPRPFPLGRLVPSAVSCGLCEPGLAAAPAAPTLLPAAYLCAPTAPPAVTAALGGSRWPGGPRSRPRGPRPDGPQPSLSLAEQHLESPVPSAPGALAGGPTQAAPGVRGEEEQWAREIGAQLRRMADDLNAQYERRRQEEQQRHRPSPWRVLYNLIMGLLPLPRGHRAPEMEPN

- binding [6]: binds
B5: BAK S117A mutant (protein, UniProt Q16611 1-211)
chain: MASGQGPGPPRQECGEPALPSASEEQVAQDTEEVFRSYVFYRHQQEQEAEGVAAPADPEMVTLPLQPSSTMGQVGRQLAIIGDDINRRYDSEFQTMLQHLQPTAENAYEYFTKIATALFESGINWGRVVALLGFGYRLALHVYQHGLTGFLGQVTRFVVDFMLHHCIARWIAQRGGWVAALNLGNGPILNVLVVLGVVLLGQFVVRRFFKS

- binding [1]: binds
B6: BAK (wild type), reconstituted in HCT116 cells lacking both BAK and BAX (protein, UniProt Q16611 1-211)
chain: MASGQGPGPPRQECGEPALPSASEEQVAQDTEEVFRSYVFYRHQQEQEAEGVAAPADPEMVTLPLQPSSTMGQVGRQLAIIGDDINRRYDSEFQTMLQHLQPTAENAYEYFTKIATSLFESGINWGRVVALLGFGYRLALHVYQHGLTGFLGQVTRFVVDFMLHHCIARWIAQRGGWVAALNLGNGPILNVLVVLGVVLLGQFVVRRFFKS
